# Reference: PubChem BioAssay AID2685 (National Center for Advancing Translational Sciences (NCATS), 2010)
# This is one part of the list. Shown are side measurements of this screen, not its main read-out; they come without a call. The list favours compounds with an active or inconclusive main result. Words in brackets tell the shape of the fitted curve; partial curves, single points and poor fits give uncertain potencies. Where a SMILES comes first, the peptide text is derived from it. The star is where a group is joined. Boc = CC(C)(C)OC(=O)*
# Assay: qHTS Assay for Lipid Storage Modulators in Drosophila S3 Cells;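 on cell number change: cells counted by Cell Tracker Red CMTPX staining in the red channel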
# Conditions: BODIPY lipid droplet fluorescence, 18-24 h; for cell number change: measured here: cell count max response, cells fed with added oleic acid
# Summary of the method: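 Laser-scanning cytometry quantifies lipid droplet accumulation (500–530 nm total intensity; droplet/cell object ratio) in oleic acid-fed (400 uM added) Drosophila S3 cells treated with a concentration series. 20 uM Triacsin C defined 100% inhibition.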
# [1] = measured here: lipid fluorescence (Fed channel) AC50, cells fed with added oleic acid
# [2] = measured here: cell number channel AC50, cells fed with added oleic acid
SMILES,cell number change [%],AC50 [1],AC50 [2]
NS(=O)(=O)c1ccccc1,-16.3,"0.411 µM [falling, partial curve, poor fit]",–
COc1ccccc1CNC(=O)c1ccccc1SCC(=O)NCc1ccco1,-95.2,–,"29.1 µM [falling, single point]"
CCc1ccc(OCC(=O)Nc2ccc(S(=O)(=O)Nc3cc(C)on3)cc2)c(Br)c1,33,"5.17 µM [rising, partial curve]","6.51 µM [rising, partial curve, poor fit]"
COc1cc(OC)cc(C(=O)N2CCC(n3c(C)nc4cc(F)ccc43)CC2)c1,-7.79,"4.61 µM [rising, single point]",–
COc1ccc(-n2nc(C(=O)NCC(=O)Nc3cc(OC)ccc3OC)c3ccccc3c2=O)cc1,-22.5,–,–
Cc1cc2c(c(=O)n1Cc1ccc3c(c1)OCO3)C(c1cccnc1)C(C#N)=C(N)O2 (configuration not stated),-1.08,"0.146 µM [rising, full curve, poor fit]",–
CC1CCN(C(=O)CCCOc2cc(=O)n(C)c3ccccc23)CC1,–,"2.59 µM [rising, partial curve]","3.26 µM [rising, partial curve]"
CC1(C)c2ccccc2N2CCC(=O)NC21/C=C/c1ccco1 (configuration not stated),–,–,"0.58 µM [rising, single point]"
Cc1ccc(SCCNC(=O)/C=C/c2ccc(Cl)cc2)cc1,22.5,"32.6 µM [rising, single point]",–
Cc1oc(-c2ccccc2F)nc1CS(=O)CC(=O)NCc1ccc2c(c1)OCO2 (configuration not stated),14.5,–,–
O=C(NCCO)Nc1ccc2nsnc2c1,116,–,"29.1 µM [rising, partial curve, poor fit]"
CCN1CCN(c2nc3c(c(=O)n(C)c(=O)n3C)n2Cc2cccc3ccccc23)CC1,–,"1.3 µM [rising, partial curve]",–
O=C(CSc1cccc[n+]1[O-])Nc1cc([N+](=O)[O-])ccc1Cl,–,–,"5.8 µM [falling, single point]"
Cc1ccc(NC(=S)N(CCN(C)C)Cc2cc3cc(C)cc(C)c3[nH]c2=O)cc1,5.64,"7.31 µM [rising, partial curve]",–
Cc1ccccc1NC(=O)CN1C(=O)NC2(CCCCCCC2)C1=O,23.7,–,–
Cc1cc(-c2ccc(C)c(S(=O)(=O)NCCCN(Cc3ccccc3)C(C)C)c2)on1,11,"29.1 µM [rising, single point]",–
CCC(C)C(NC(=O)OC(C)(C)C)C(=O)NC(Cc1ccccc1)C(=O)OC (stereo not drawn) (Boc-Ile-Phe-OMe; configuration not given here),3.55,"16.4 µM [rising, partial curve, poor fit]",–
CCN(c1ccccc1)S(=O)(=O)c1ccc(Cl)c(NC(=O)COC(=O)c2ccc(O)cc2)c1,-31.5,"16.4 µM [falling, single point]","20.6 µM [falling, single point]"
COc1ccc(CC(=O)Nc2ccc(S(=O)(=O)Nc3nc(C)cc(C)n3)cc2)cc1,–,"6.51 µM [falling, partial curve, poor fit]",–
COc1ccc(NC(=S)N2CCC(NC(=O)c3ccc(OC)cc3)CC2)cc1,18.9,–,–

# 3 entries from above, bar-delimited.
SMILES | cell number change [%] | AC50 [1] | AC50 [2]
O=C(NCCO)Nc1ccc2nsnc2c1 | 116 | – | 29.1 µM [rising, partial curve, poor fit]
CCN1CCN(c2nc3c(c(=O)n(C)c(=O)n3C)n2Cc2cccc3ccccc23)CC1 | – | 1.3 µM [rising, partial curve] | –
O=C(CSc1cccc[n+]1[O-])Nc1cc([N+](=O)[O-])ccc1Cl | – | – | 5.8 µM [falling, single point]

# Remaining list, next part

SMILES,cell number change [%],AC50 [1],AC50 [2]
O=C(NCC(c1ccco1)N1CCCC1)c1cc2ccccc2s1 (configuration not stated),2.02,"0.0651 µM [rising, full curve, poor fit]",–
CN(CCC#N)C(=O)COC(=O)c1ccc2c(=O)n3c(nc2c1)CCC3,-46.7,–,"16.4 µM [falling, single point]"
Cc1ccc(NC(=O)CSc2nnc(-c3ccncc3)n2N)cc1C,3.97,–,–
Cc1ccc(C(=O)Nc2ccccc2C(=O)NCc2cccnc2)cc1,13,"29.1 µM [falling, single point]",–
Cc1ccccc1NC(=O)c1cc2c(=O)n3cccc(C)c3nc2s1,23.9,"4.11 µM [falling, single point]",–
N#Cc1ccc(NC(=S)NCCN2CCOCC2)cc1,-2.03,"0.116 µM [rising, full curve, poor fit]",–
Cc1ccc(OCc2nc(-c3ccccn3)n[nH]2)cc1,13.4,"6.51 µM [falling, single point]",–
Cc1ccccc1OCC(=O)Nc1ccc(C)c(S(=O)(=O)N2CCCCCC2)c1,–,"0.517 µM [rising, single point]",–
O=S(=O)(CCSc1nc2ccccc2o1)Cc1ccccc1,-5.33,"0.651 µM [falling, partial curve, poor fit]",–
CCOc1cc(C(=O)NC(C)CC)cc(OCC)c1OCC (configuration not stated),-6.97,"14.6 µM [rising, partial curve]",–
Cc1ccnc(NC(=O)CSc2nnc3c(n2)[nH]c2ccccc23)c1,-36.5,"18.4 µM [falling, partial curve]","20.6 µM [falling, single point]"
O=C(Nc1nnc(-c2ccccc2)o1)c1cccc(N2C(=O)CCC2=O)c1,8.29,–,–
Cc1ccc(N2C(=O)CC(c3ccsc3)C3=C2CC(C)(C)CC3=O)cc1 (configuration not stated),13.2,–,–
O=c1[nH]c(N2CCOCC2)nc2c1CCCC2,13.5,"29.1 µM [falling, single point]",–
Cc1ccc(N2CCN(S(=O)(=O)c3c(C)nc4scc(C)n4c3=O)CC2)c(C)c1,–,"29.1 µM [falling, single point]",–
CCN(C(=O)CSc1nnnn1C)C1CCS(=O)(=O)C1 (configuration not stated),–,"6.51 µM [rising, single point]",–
Cc1c(OCC(=O)N[C@H](C(=O)O)c2ccccc2)ccc2c3c(c(=O)oc12)CCCC3,27.2,"16.4 µM [rising, partial curve, poor fit]",–
COc1ccc(-n2nc(N)c(C(N)=O)n2)cc1,–,"0.164 µM [rising, full curve, poor fit]",–
COc1ccc(C(=O)C[n+]2cc(-c3ccc(OC)cc3)n3c2CCCC3)cc1,23.3,"29.1 µM [falling, single point]",–
CCCCOC(=O)n1c(SCC(=O)N(C)C)nc2ccccc21,-27.5,"6.51 µM [falling, partial curve]",–

SMILES,cell number change [%],AC50 [1],AC50 [2]
CC(C)COC(=O)C1C(=O)CC(C)(O)C(C(=O)OCC(C)C)C1c1cccnc1 (configuration not stated),-0.576,"13 µM [falling, partial curve]",–
C[C@@H]1C(=O)O[C@H]2[C@H](O)[C@@]34[C@H]5C[C@@H](C(C)(C)C)[C@]36[C@@H](OC(=O)[C@@H]6O)O[C@@]4(C(=O)O5)[C@@]12O,16.2,–,"0.411 µM [falling, single point]"
COc1ccc(-c2cc(C(=O)NCCCN3CCCC3=O)c3ccccc3n2)cc1,138,–,"18.4 µM [rising, partial curve]"
CC(=O)Nc1ccc(N2C(=O)C3C4CC(=O)C(c5ccccc54)C3C2=O)cc1 (configuration not stated),-28.2,"23.1 µM [falling, partial curve]",–
CC(C)c1ccc(-c2noc(C3CCCN(C(=O)c4ccc(F)cc4F)C3)n2)cc1 (configuration not stated),-50,"11.6 µM [falling, partial curve]","20.6 µM [falling, single point]"
CC1(C)C(=O)NCCN1C(=O)c1ccc2nc(Cc3ccccc3F)oc2c1,28.2,"5.17 µM [rising, full curve, poor fit]",–
CCOC(=O)N1CCN(C(=O)C(=O)Nc2sc3c(c2C#N)CC(C)(C)OC3)CC1,-24.5,"29.1 µM [falling, single point]",–
Cc1[nH]c2ccccc2c1C(=O)COC(=O)C1CC(=O)N(Cc2ccccc2)C1 (configuration not stated),44.7,"13 µM [rising, partial curve]","7.31 µM [rising, partial curve]"
CCOC(=O)NNC(=O)NCCCCCCNC(=O)NNC(=O)OCC,-38.4,"0.731 µM [falling, full curve]","0.82 µM [falling, full curve]"
CCC[C@@H]1C[C@@]1(CCC)[C@@H](NP(=O)(c1ccccc1)c1ccccc1)c1ccc(C(=O)OC)cc1,-76.7,"10.3 µM [rising, single point]","16.4 µM [falling, single point]"
COc1ccc(C(=O)Nc2ccc(-c3n[nH]c(=S)o3)cc2)cc1OC,-2.7,–,–
Cc1cccc(C(=O)NNC(=O)c2ccc(S(=O)(=O)N3CCOCC3)cc2)c1,28.3,"0.103 µM [falling, full curve, poor fit]",–
CC1=C(C(=O)OCC2CCCO2)C(c2ccc(Cl)cc2)NC(=O)N1 (configuration not stated),-13.8,–,"0.411 µM [rising, single point]"
COc1cc(OC)cc(C(=O)NNC(=O)c2cc(=O)[nH]c3ccccc23)c1,-13.9,"0.0058 µM [falling, full curve, poor fit]",–
COc1cc(/C=C/C(=O)c2ccc(C)cc2)ccc1OCC#N,-24,"0.206 µM [falling, partial curve, poor fit]","0.00461 µM [falling, full curve, poor fit]"
CC1CC(C)CN(C(=O)CSc2nc3ccsc3c(=O)n2Cc2ccccn2)C1 (configuration not stated),21.7,"0.411 µM [rising, partial curve]",–
CCCn1c(=O)[nH]c2ccccc21,-15.4,–,–
Cn1cc(S(=O)(=O)N2CCc3ccccc32)cc1C(=O)NC(C)(C)C,-16.1,–,–
CC1(C)OC(=O)C=C[C@]2(C)[C@H]3CC[C@@]4(C)[C@H](C(=O)O)OC(=O)[C@H]5O[C@]54[C@]3(C)C(=O)C[C@@H]12,-9.75,–,–
